# Experimental data reported in PubChem BioAssay AID624297 (National Center for Advancing Translational Sciences (NCATS), 2012).
# The campaign covered roughly 340,000 compounds. About 6,200 (1.8%) were called active. Inconclusive results, whose numbers are uncertain, are shown with a selection of clear calls. Calls come from the whole dose curve; as a rule, active = well fitted activation curve with a large enough effect; inconclusive = small, poorly fitted or top-dose-only effect; inactive = no such curve, though single readings can be large or run the other way. Potencies beside an inconclusive call are fits to weak or partial responses and may not hold up.
# Assay: A quantitative high throughput screen for small molecules that induce DNA re-replication in SW480 colon adenocarcinoma cells. For re-replication activation: % of control where 0% means no effect. Note: nearly all actives have a fitted effect of over 55% in size.
# Settings: Hoechst DNA content imaging, 48 h; re-replication activation: at 46.1 µM (top of the series) unless noted
# Method in brief: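 DNA re-replication was detected as more nuclei of elevated Hoechst intensity after 48 hr exposure to compound (23 nL pinned per well of 250 cells).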
# Potency is the fitted concentration of half-maximal effect.
SMILES,Potency,re-replication activation
O=C(NCC1CCCO1)C(=Cc1cccc([N+](=O)[O-])c1)C(=O)NCC1CCCO1 (stereo unspecified),"inconclusive: 18.4 µM [activator, single point]",–
COc1ccc2[nH]c(=O)c(CN(C)C(=O)c3cccs3)cc2c1,"inconclusive: 0.116 µM [activator, full curve, poor fit]",–
Cc1ccc(-c2nn(-c3ccccc3)cc2CN(Cc2ccccc2)C(=O)c2ccco2)o1,"inconclusive: 29.1 µM [activator, single point]",–
Cc1ccc(S(=O)(=O)/N=C2\C=C(Nc3cccc(C(=O)O)c3)C(=O)c3ccccc32)cc1,"inconclusive: 29.1 µM [activator, single point]",–
COc1cccc(C(C(=O)NC(C)(C)C)N(CCc2ccccc2)C(=O)CCC(=O)Nc2cc(C)on2)c1OC (stereo unspecified),–,inactive: 2.91%
CCN(C(=O)COC(=O)c1cc(-c2ccccc2)nc2c1c(C)nn2-c1ccccc1)C1CCS(=O)(=O)C1 (stereo unspecified),–,inactive: 4.98%
CCOc1ccc(C2Nc3ccc4ccccc4c3-c3c2c(=O)oc2ccccc32)cc1 (stereo unspecified),"inconclusive: 25.9 µM [activator, single point]",–
CCCOc1cccc(OCC(=O)Nc2nc3ccccc3[nH]2)c1,–,inactive: -11.2%
O=[N+]([O-])c1ccc(N2CCN(C(=S)NCc3ccc(Cl)cc3)CC2)cc1,"inconclusive: 29.1 µM [activator, partial curve, poor fit]",–
CC1(C)CC2(CCO1)CNC(=O)O2 (stereo unspecified),"inconclusive: 18.4 µM [activator, single point]",–
O=S(=O)(c1ccc(SCc2ccccc2)nc1)N1CCCC1,"inconclusive: 2.91 µM [activator, full curve, poor fit]",–
CN(C)C1=NC[C@H](Cc2ccccc2)N1CCCC1CCCC1,"inconclusive: 29.1 µM [activator, single point]",–
CN(C(=O)CN1C(=O)NC(c2ccccc2)(c2ccccc2)C1=O)C1CCS(=O)(=O)C1 (stereo unspecified),"inconclusive: 5.8 µM [activator, full curve, poor fit]",–
O=C1C=CC[C@H](/C=C/C[C@@H](O)C[C@H](O)CCc2ccccc2)O1,"inconclusive: 18.4 µM [activator, partial curve, poor fit]",–
CCOCCCNC(=O)c1cc2sc(Cl)cc2n1CC,"inconclusive: 29.1 µM [activator, partial curve, poor fit]",–
CCn1ccc(C(=O)N2CCN(c3ncccn3)CC2)n1,–,inactive: -2.65%
Cc1ccc(-c2nc3cccnc3s2)cc1NC(=O)c1ccco1,"inconclusive: 20.6 µM [activator, single point]",–
COc1ccc2c(c1)c(=O)c(C(=O)c1ccccc1)cn2Cc1ccc(C)cc1,"inconclusive: 29.1 µM [activator, single point]",–
Cc1ccc(/C=C/C(=O)c2c(C)nc3ccccn23)cc1,"inconclusive: 20.6 µM [activator, single point]",–
CCc1ccc(CNC(=O)Cc2ccc(NC(=O)C3=C(C)OCCS3)cc2)cc1,"inconclusive: 0.58 µM [activator, partial curve, poor fit]",–
O=C(CN1C(=O)C2CCCCC2C1=O)N1CCN(c2ncccn2)CC1 (stereo unspecified),"inconclusive: 14.6 µM [activator, single point]",–

SMILES,Potency,re-replication activation
O=C(O)c1ccc(NC2=Nc3cccc4cccc2c34)cc1,"inconclusive: 18.4 µM [activator, single point]",–
Cc1ccc(N(C(=O)c2snc(C(N)=O)c2N)C(CC(C)C)C(=O)NC2CCCC2)cc1 (stereo unspecified),"inconclusive: 20.6 µM [activator, single point]",–
COc1cc(C(=O)NC2CCN(C)CC2)ccc1Nc1ncc2c(n1)N(CCc1ccccc1)CCC(=O)N2C,active: 0.206 µM,–
O=C(Nc1ccccc1N1CCN(C(=O)c2ccc(Cl)cc2)CC1)c1cc2ccccc2o1,"inconclusive: 14.6 µM [activator, partial curve, poor fit]",–
CNS(=O)(=O)c1cccc(C(=O)NCC2(N3CCOCC3)CCCCC2)c1,"inconclusive: 29.1 µM [activator, single point]",–
CN1CCC(N(C)C(=S)Nc2ccc(SC(F)F)cc2)CC1,"inconclusive: 0.82 µM [activator, partial curve, poor fit]",–
Cc1ccc(-c2c[n+]3c(n2-c2ccccc2)CCC3)cc1,"inconclusive: 16.4 µM [activator, partial curve, poor fit]",–
NC(=O)c1c(/N=C/c2cccs2)sc2c1CCCC2,–,inactive: 26.6%
CCCC(=O)OCC(=O)Nc1ccc2[nH]c(=O)[nH]c2c1,"inconclusive: 0.58 µM [activator, full curve, poor fit]",–
COc1ccc(NS(=O)(=O)c2cc(NC(=O)c3ccc(=O)[nH]n3)ccc2C)cc1,active: 18.4 µM,–
COCc1cc(=O)[nH]c(Nc2nc3ccc(C)cc3o2)n1,"inconclusive: 4.11 µM [activator, full curve, poor fit]",–
CC(C)C1C(c2ccccc2)NC(c2ccccc2)CC1(O)c1ccc(F)cc1 (stereo unspecified),"inconclusive: 16.4 µM [activator, single point]",–
CNc1nc(N)c([N+](=O)[O-])c(NCC2CCCO2)n1 (stereo unspecified),"inconclusive: 29.1 µM [activator, single point]",–
O=C(N/N=C/c1cc2c(cc1Cl)OCO2)c1ccc2c(c1)OCCO2,"inconclusive: 23.1 µM [activator, single point]",–
CCc1nnc(NC(=O)c2nc(S(=O)(=O)Cc3ccccc3)ncc2Cl)s1,"inconclusive: 6.51 µM [activator, partial curve]",–
O=C(Nc1ccccc1)OCCOc1ccc(Cl)cc1Cl,"inconclusive: 29.1 µM [activator, partial curve, poor fit]",–
CCCCCCCOC(=O)C[N+](C)(C)CCOC1CC2CCC1(C)C2(C)C (stereo unspecified),"inconclusive: 18.4 µM [activator, partial curve]",–
C=CCn1c(C)cc(C(=O)CSc2nnc(NCc3ccccc3)s2)c1C,"inconclusive: 20.6 µM [activator, single point]",–
COc1ccccc1NC(=O)CN1CCC(n2c(C)nc3cc(F)ccc32)CC1,–,inactive: -2.97%
COc1ccc(-n2cc(CNCCc3cnc[nH]3)c(-c3cccc(F)c3)n2)cc1,"inconclusive: 0.116 µM [activator, full curve, poor fit]",–
CN(C)/N=C/c1ccc(Sc2ccc([N+](=O)[O-])cc2[N+](=O)[O-])o1,"inconclusive: 29.1 µM [activator, single point]",–

SMILES,Potency,re-replication activation
COc1ccccc1N1CCN(C(c2cc3ccc(C)cc3[nH]c2=O)c2nnnn2C2CCCC2)CC1 (stereo unspecified),"inconclusive: 7.31 µM [activator, partial curve, poor fit]",–
CC1Cc2ccccc2N1S(=O)(=O)c1cnc(Cl)c(Br)c1 (stereo unspecified),"inconclusive: 20.6 µM [activator, partial curve, poor fit]",–
CCOC(=O)CSC1=NC(=O)/C(=C\c2ccc(OC(C)=O)cc2)S1,"inconclusive: 5.17 µM [activator, full curve]",–
CC1(C)Cc2c(sc(NC(=O)c3ccc4ncsc4c3)c2C(N)=O)C(C)(C)N1,"inconclusive: 13 µM [activator, single point]",–
CC(=O)c1ccc(NC(=O)c2ccc(C)c(S(=O)(=O)N3CCOCC3)c2)cc1,–,inactive: -5.99%
Cc1cc(OC(=O)c2c(Cl)cc(Cl)cc2Cl)nc(C)n1,"inconclusive: 29.1 µM [activator, single point]",–
CCC1CCCCN1CCCNC(=O)C1CCC(CNS(=O)(=O)c2c(C)cc(C)cc2C)CC1 (stereo unspecified),"inconclusive: 18.4 µM [activator, single point]",–
Cc1cc(C)c(S(=O)(=O)NC2CC(C)(C)NC(C)(C)C2)cc1Br,–,inconclusive: 84.1% [activator]
COc1ccccc1-c1nn(Cc2ccccc2)cc1C(=O)N1CCN(c2ncccn2)CC1,"inconclusive: 35.5 µM [activator, single point]",–
O=C(/C=C/c1ccc(F)cc1)NC(=S)Nc1ccccc1C(=O)NC1CCCCC1,"inconclusive: 16.4 µM [activator, single point]",–
Cc1ccc(S(=O)(=O)N2CCN(C(=O)COC(=O)Cc3ccc(F)cc3)CC2)c(C)c1,–,inactive: -4.29%
COc1ccc(NS(=O)(=O)c2cc(NC(=O)CC3CCCC3)ccc2N2CCOCC2)cc1,"inconclusive: 14.6 µM [activator, partial curve, poor fit]",–
Cc1ccc(C(NC(=O)N2CCCCC2)=C(Cl)Cl)cc1F,active: 6.51 µM,–
COC(=O)c1c[nH]c2c1-c1cc(C(=O)OCc3ccccc3)n(S(=O)(=O)c3ccc(C)cc3)c1C(=O)C2=O,"inconclusive: 9.2 µM [activator, partial curve, poor fit]",–
COc1ccc(C2Nc3ccccc3NC3=C2C(=O)CC(C)(C)C3)cc1O (stereo unspecified),"inconclusive: 18.4 µM [activator, partial curve, poor fit]",–
CC1CC(NC(=O)c2c(O)nc3sccn3c2=O)CC(C)(C)C1 (stereo unspecified),"inconclusive: 0.164 µM [activator, full curve, poor fit]",–
O=C(CNC(=O)N1CC(=O)Nc2ccccc21)NCc1ccccc1,"inconclusive: 29.1 µM [activator, single point]",–
O=C(COc1ncnc2sccc12)N1CCN(S(=O)(=O)c2ccc(Cl)cc2)CC1,"inconclusive: 0.0326 µM [activator, partial curve, poor fit]",–
Cn1nnc(NC(=S)NC(=O)c2cccs2)n1,"inconclusive: 2.31 µM [activator, full curve, poor fit]",–

# Full records, looked up by structure. Values in the order: Potency | re-replication activation
# COc1ccccc1-c1nn(Cc2ccccc2)cc1C(=O)N1CCN(c2ncccn2)CC1 as listed: inconclusive: 35.5 µM [activator, single point] | –
# COc1ccc(NS(=O)(=O)c2cc(NC(=O)CC3CCCC3)ccc2N2CCOCC2)cc1 as listed: inconclusive: 14.6 µM [activator, partial curve, poor fit] | –
# CCOC(=O)CSC1=NC(=O)/C(=C\c2ccc(OC(C)=O)cc2)S1 as listed: inconclusive: 5.17 µM [activator, full curve] | –
# CC1(C)Cc2c(sc(NC(=O)c3ccc4ncsc4c3)c2C(N)=O)C(C)(C)N1 as listed: inconclusive: 13 µM [activator, single point] | –
